Data taken from publication PMC2910240 (Neuroscience letters, 2010).

The chains behind the UniProt entries cited, without tags or fusion partners.
UniProt P41595, whole entry: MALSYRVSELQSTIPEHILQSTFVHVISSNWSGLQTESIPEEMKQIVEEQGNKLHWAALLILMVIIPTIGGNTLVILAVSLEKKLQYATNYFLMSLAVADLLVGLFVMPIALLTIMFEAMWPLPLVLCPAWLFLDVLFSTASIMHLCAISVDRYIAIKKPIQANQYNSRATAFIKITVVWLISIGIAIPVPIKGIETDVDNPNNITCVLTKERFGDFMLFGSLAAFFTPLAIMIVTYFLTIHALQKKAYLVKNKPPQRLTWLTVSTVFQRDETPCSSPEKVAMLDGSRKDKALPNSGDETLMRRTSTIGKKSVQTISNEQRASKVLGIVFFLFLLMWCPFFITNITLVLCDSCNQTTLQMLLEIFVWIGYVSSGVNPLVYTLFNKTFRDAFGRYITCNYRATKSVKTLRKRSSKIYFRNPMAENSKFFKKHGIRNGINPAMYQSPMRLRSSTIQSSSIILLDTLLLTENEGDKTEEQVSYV

Target: h5-HT2B (Homo sapiens, UniProt P41595)
Assay: Competition radioligand binding

`CC[C@@H](CO)NC(=O)[C@@H]1C=C2c3cccc4c3c(cn4C)C[C@H]2N(C)C1` [Methysergide, reference compound] gave a Ki of 2.4 nM.
